Measurements reported in PubChem BioAssay AID1671195 (Yale University, 2021)
Purpose: 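Knockdowns that increase or decrease uptake of fluorescent LDL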 (primary screen). System: human Huh7 hepatoma cells. Reagents: siRNA pool against human genes, 18 nM. Timing: about 2 to 2.5 days of knockdown, then 8 h LDL uptake. Conditions: DiI-labelled LDL at 30 µg/ml for 8 h, in lipoprotein-deficient serum medium. Read-out: 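Fluorescent LDL signal imaged in cells, scaled to the plate median, robust z-score for each replicate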. Scale: robust z-score: higher = more LDL uptake after knockdown. Hit rule: 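a gene counts as active if at least two replicate z-scores exceed ±2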.
In all, the deposit lists about 22,000 reagents; this is a part drawn at random. About 1,510 of them (6.9%) count as active. 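Active includes knockdowns raising or lowering LDL uptake; positive z-scores mean more uptake, negative mean less.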 A number with no mark means an inactive call.

MCTP2
- robust z-score, replicate 1: 0.132
- robust z-score, replicate 2: 0.6
- robust z-score, replicate 3: 0.585

SGK3
- robust z-score, replicate 1: 3.41 (active)
- robust z-score, replicate 2: 1.53
- robust z-score, replicate 3: 3.53

YIF1A
- robust z-score, replicate 1: 3.88 (active)
- robust z-score, replicate 2: 2.61
- robust z-score, replicate 3: 3.54

PHF20
- robust z-score, replicate 1: 2.48 (active)
- robust z-score, replicate 2: 1.81
- robust z-score, replicate 3: 2.09

COX6B2
- robust z-score, replicate 1: 0.0886
- robust z-score, replicate 2: 0.193
- robust z-score, replicate 3: 0.00292

KRT7
- robust z-score, replicate 1: -0.544
- robust z-score, replicate 2: 0.245
- robust z-score, replicate 3: -0.0312

FBXO30
- robust z-score, replicate 1: -1.39
- robust z-score, replicate 2: -1.31
- robust z-score, replicate 3: -1.36

ANAPC15
- robust z-score, replicate 1: 1.95 (active)
- robust z-score, replicate 2: 3.51
- robust z-score, replicate 3: 1.51

KIZ
- robust z-score, replicate 1: 0.776
- robust z-score, replicate 2: -0.063
- robust z-score, replicate 3: 0.24

MS4A12
- robust z-score, replicate 1: 1
- robust z-score, replicate 2: 1.09
- robust z-score, replicate 3: 1.15

PMCH
- robust z-score, replicate 1: -0.682
- robust z-score, replicate 2: -0.437
- robust z-score, replicate 3: -0.0226

LINC00891
- robust z-score, replicate 1: 1.29
- robust z-score, replicate 2: 1.17
- robust z-score, replicate 3: 1.04

Taken from above.
Result for YIF1A in “robust z-score, replicate 1”: 3.88 (active)
Under “robust z-score, replicate 3”, KRT7 has -0.0312
